# Screening data, single-dose tests

Chains of the proteins cited; added tags and fusions are not shown. Residues count along the entry.
UniProt A4I591, 1-473: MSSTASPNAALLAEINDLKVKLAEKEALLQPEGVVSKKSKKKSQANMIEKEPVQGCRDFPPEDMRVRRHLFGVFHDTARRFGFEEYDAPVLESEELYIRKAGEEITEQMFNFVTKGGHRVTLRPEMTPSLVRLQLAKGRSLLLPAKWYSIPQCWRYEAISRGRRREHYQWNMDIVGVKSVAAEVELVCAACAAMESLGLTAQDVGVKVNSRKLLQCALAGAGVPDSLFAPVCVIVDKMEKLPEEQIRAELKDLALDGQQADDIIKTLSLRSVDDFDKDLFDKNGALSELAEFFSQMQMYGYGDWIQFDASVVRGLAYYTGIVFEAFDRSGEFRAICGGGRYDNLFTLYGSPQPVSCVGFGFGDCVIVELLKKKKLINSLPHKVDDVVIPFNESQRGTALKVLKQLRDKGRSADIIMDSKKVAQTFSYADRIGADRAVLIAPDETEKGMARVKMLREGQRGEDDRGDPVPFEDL

Data taken from ChEMBL document CHEMBL3988442, “University of Dundee, Small-Polar-MMV Screening Library” (2021).

A: 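Assay of Toxoplasma gondii numbers, read through their beta-galactosidase reporter with a colour substrate. Tested at 10 µM. The record gives no direction; the compounds picked for IC50 retests had high values, so higher reads as fewer parasites. About 67,000 compounds were tested under these conditions; 0.38% (about 260) showed 50% or more at least once.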
B: 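Histidine-tRNA ligase, Leishmania infantum (UniProt A4I591). Enzyme assay of histidyl-tRNA synthetase; the read-out is not stated. Compounds at 30 µM. Direction is inferred from retests: higher values go with stronger inhibition. The assay is labelled LdHisRS but filed under L. infantum. About 69,000 compounds were tested under these conditions; 0.6% (about 410) showed 50% or more at least once.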

Each number is a percent effect as filed. The record does not define 0% and 100%; most values in the screen are far below 50% and negative numbers occur (in some assays of this library far below -100). This is an unselected part of the compounds tested. A dash means the value is not listed here; it may have been measured.

Compound,A,B
Cc1cc(NC(=O)CNC2CCCN(c3cccnn3)C2)on1 (stereo not given),-5.115%,12.28%
[H][C@@]12CN(C(=O)c3cc(C)oc3C)C[C@]1([H])[C@H]2CN(C)CCCn1cccn1,-11.35%,-
CC(C)CC(NC(=O)c1cc(C2CC2)n[nH]1)c1ncnn1C (stereo not given),-20.8%,6%
CCOCC(=O)NCCc1nc(C2CC2)cc(C(F)(F)F)n1,16.16%,21.74%
CN(C)CC1CSCCCN1C(=O)c1ccc(-n2cccc2)cc1 (stereo not given),-8.164%,6.849%
COc1ccc(COCC(=O)NC2CCc3nc(C)cn3C2)cc1 (stereo not given),6.279%,9.821%
Nc1nc2nc(C3CCCN(C(=O)c4cncs4)C3)ccc2s1 (stereo not given),-14.81%,5.208%
CN(C)C(=O)N1CCC2(CCCN(Cc3cnn(C)c3)C2)C1.O=C(O)C(F)(F)F (stereo not given),-1.452%,-
CC(C)(C)OC(=O)NC(C)(C)c1noc(CSc2ccccn2)n1,-10.27%,6.612%
Cc1cc(C(=O)N2CCOC(c3nc(C(C)C)n[nH]3)C2)c(C)s1 (stereo not given),8.345%,4.386%
CN(C)CCOCc1cncc2c1CCN(C1CCOCC1)C2,-,13.21%
O=C(NCc1ccccc1)N1CCC2(CC(=O)N(c3ccsc3)C2)C1 (stereo not given),7.137%,7.692%
O=c1[nH]cnc2c1CCN(S(=O)(=O)c1ccc(Cl)cc1)C2,11.66%,18.37%
Cc1nnc(N(CCC#N)CCC#N)s1,-1.556%,9.396%
COc1ccccc1CCN1CCCC(CN(C)Cc2c[nH]c(C)n2)C1 (stereo not given),3.965%,3.614%
COC1(CNC(=O)c2ccsc2)CCSC1 (stereo not given),13.01%,9.756%
CC(C)OCCN1CCc2cncnc2C1,-,37.1%
[H][C@@]12CCN(S(C)(=O)=O)C[C@@]1([H])O[C@H](c1ccnc(C)n1)C2,8.559%,-
CCCN1CCN(C(=O)c2cc[nH]n2)[C@H]2CS(=O)(=O)C[C@H]21,-,13.89%
[H][C@@]12C[C@H](C(=O)N(C)C)CN(Cc3ccccn3)[C@]1([H])CCO2,-9.101%,-
CC(C)c1nc2c(n1C)CCN(Cc1cccc(C(N)=O)c1)C2,-1.993%,1.835%
CCc1nc2n(n1)CC(NCc1nc(Cc3ccccc3)no1)CC2 (stereo not given),18.76%,-2.679%
Cc1nc(CN2C[C@@H](NS(=O)(=O)N(C)C)[C@H](C(C)C)C2)cs1,-5.556%,14.67%
CCCn1c(NC(=O)CNC(=O)OCC)nc2ccccc21,-7.494%,24.66%
CNC(=O)N1CC[C@H]2N(C)CC[C@@]2(C(=O)N2CCOCC2)CC1,-,15.38%
CC1CCCCN1c1nc2c(c(=O)[nH]1)CCN(Cc1ccc(O)cc1)C2 (stereo not given),-4.453%,7.246%
CCc1nc(CN2CCCN(C(=O)COCC3CC3)CC2)cs1,-10.15%,31.91%
CN1CCN(C(=O)c2cc(-c3ccco3)cs2)CC1,-15.07%,30%
Cc1cc(C2CCCN2C(=O)COc2ccc(CC#N)cc2)no1 (stereo not given),5.33%,-17.95%
CN(C)C(CNCc1nc(-c2ccsc2)no1)c1cccc(F)c1 (stereo not given),-2.862%,5.479%
COCC(=O)NC1CC2(CCN(CCO)CC2)c2ccccc21 (stereo not given),-,17.27%
CNCc1ccc([C@@H]2CN(C(C)=O)C[C@H]2C(=O)N(C)C)cc1,-,11.51%
CS(=O)(=O)c1cccc(S(=O)(=O)NC(=O)CC2CCCC2)c1,0.863%,-1.408%
CSCc1noc(CNC(=O)c2cc(C)c(C)[nH]c2=O)n1,2.813%,9.375%
COc1ccnc(N2CCN(C(=O)c3cccc(C#N)c3)CC2)n1,5.672%,9.649%
O=C(O)C(F)(F)F.O=C(O)C(F)(F)F.O=C(O)C(F)(F)F.[H][C@@]12OCCN(Cc3cccnc3)[C@@]1([H])CC[C@H]2OCc1csc(C)n1,1.093%,-
c1ccc2c(NCC3(N4CCOCC4)CCSC3)ncnc2c1 (stereo not given),7.561%,6.494%
[H][C@@]12CN(CC3CC3)C[C@]1([H])[C@H](OC)CCN2c1ncc(F)cn1,12.09%,-
Cc1ccc(C(=O)N2CC[C@@H]3[C@H]2CCC(=O)N3CC2CC2)o1,-,7.018%
COc1cccc(C(=O)N2CCc3c(nc(N)[nH]c3=O)C2)c1C,10.55%,17.65%
Cc1nc[nH]c1CN1CCC(CNC(=O)c2cccc3cnccc23)C1 (stereo not given),-2.423%,5%
CC(Cn1cccn1)NC(=O)Nc1ccc(N2CCCC2)nc1 (stereo not given),11.36%,33.33%
CCn1ncc2c1C(COC)CN(S(=O)(=O)N(C)C)C2 (stereo not given),-,10.81%
CC(=O)c1cc(CC(=O)NCc2c(F)cccc2F)cs1,-3.578%,13.46%
O=C(c1ccncc1)N1CCCC(c2ncncc2-c2ccncc2)C1 (stereo not given),-6.607%,2%
O=C(CCn1ccc(=O)[nH]c1=O)N1CCC(OCc2cccnc2)CC1,-,6.452%
CC1Cn2c(nc3c2c(=O)[nH]c(=O)n3C)O1 (stereo not given),7.242%,11.59%
[H][C@]12CN(CCN3CCCC3=O)CC[C@@]1(O)CCN(c1ncccn1)C2,16.28%,-
COC(=O)c1ccc(C2SCC(=O)Nc3c2cnn3C2CCCC2)cc1 (stereo not given),-16.49%,-10%
CC(=O)c1cc(C(=O)N2CCN(C)Cc3ccccc32)n(C)c1,-3.995%,24.29%
CC(C)C(=O)N1CC2(CCN(CC(C)(C)C)CC2)C1,-,19.42%
O=C(CSCc1ccccn1)NCC1CC1,-9.732%,25.71%
O=C(COC1CCCC1)NCCCn1nc2ccccn2c1=O,-18.2%,15.66%
Cc1nc(C)n(CC2CCCN(Cc3ccc4c(c3)OCCO4)C2)n1 (stereo not given),-22.65%,14.29%
Cc1nn(C)c(N2CCOCC2)c1CNC(c1cccs1)C(C)C (stereo not given),-0.4394%,37.88%
[H][C@@]12CCN(C(=O)NC)CC[C@]1(C(=O)Nc1ccccc1)CCN2C,4.777%,-
COCCN1CCN(S(=O)(=O)C2CC2)Cc2ccc(C)nc21.O=C(O)C(F)(F)F,-3.646%,-
CC(C)(C)c1ccn(C2(C(=O)O)CCN(c3nccc(N)n3)CC2)n1,4.42%,4.808%
CCc1nccc(CN2CCC(CNC(=O)c3occc3C)C2)n1 (stereo not given),-17.52%,23.2%
CC(c1ccccc1F)N(CC(N)=O)C1CC1 (stereo not given),-5.688%,13.16%
O=C(Cn1ccc(=O)[nH]c1=O)NCC1Cc2ccccc2O1 (stereo not given),0.8327%,-24.66%
CCn1ccnc1CN(C)Cc1nc(Cc2cccc(F)c2)no1,-0.1189%,11.84%
CCN1CCN(C(=O)CCC2CCN(C(=O)CCSC)CC2)CC1,-0.1494%,10.17%
O=C(N[C@@H]1c2ccccc2C[C@@H]1O)C1CCN(Cc2ccco2)CC1,14.69%,9.783%
COCCNC(=O)c1cc(-c2cc[nH]n2)n2ccccc12.O=C(O)C(F)(F)F,0.1619%,-